The other results are listed elsewhere or left out.
Tests used:
Assay in all cases: log2 fold change, soluble protein after heating vs DMSO (PISA); higher = thermal stabilisation; K562 lysate, 10 uM; active = over 0.2 and 3.5 SD of the protein, either way, in both replicates (recomputed)
[1] = compound: C#Cc1cccc(Nc2ncnc3cc(OCCOC)c(OCCOC)cc23)c1 [erlotinib]
How it was run: (§1)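 Quantification was by TMTpro 16plex LC-MS/MS with equalised channel sums, applied to the supernatant after 21,000xg for 90 min. Samples were crude K562 extract at 1 mg/mL protein in PBS pH 7.4 with 1 mM MgCl2, treated with 10 μM compound for 30 min, heated for 3 min across 48°C-58°C, pooled and brought to 0.5% NP-40 at 4°C. Values are log-two fold changes in thermal stability relative to solvent controls, from duplicates.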

The chains behind the UniProt entries cited, without tags or fusion partners. Where a name states a change or a piece, a line headed by the entry shows the natural chain unless it says otherwise.
UniProt Q15287: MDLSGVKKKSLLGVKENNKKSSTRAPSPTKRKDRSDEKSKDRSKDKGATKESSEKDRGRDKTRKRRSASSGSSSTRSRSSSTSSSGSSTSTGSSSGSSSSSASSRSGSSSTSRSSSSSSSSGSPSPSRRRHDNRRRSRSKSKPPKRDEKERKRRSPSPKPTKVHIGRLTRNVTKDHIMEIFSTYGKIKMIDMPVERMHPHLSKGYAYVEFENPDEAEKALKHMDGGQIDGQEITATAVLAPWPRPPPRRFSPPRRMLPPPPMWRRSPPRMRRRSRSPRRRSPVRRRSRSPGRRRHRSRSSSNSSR
UniProt Q9Y508: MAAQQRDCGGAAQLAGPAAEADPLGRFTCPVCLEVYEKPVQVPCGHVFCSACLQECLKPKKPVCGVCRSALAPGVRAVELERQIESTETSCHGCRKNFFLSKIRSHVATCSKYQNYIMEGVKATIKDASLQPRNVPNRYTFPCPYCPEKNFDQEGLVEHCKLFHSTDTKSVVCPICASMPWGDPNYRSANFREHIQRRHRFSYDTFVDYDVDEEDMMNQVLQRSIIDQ
UniProt P84095: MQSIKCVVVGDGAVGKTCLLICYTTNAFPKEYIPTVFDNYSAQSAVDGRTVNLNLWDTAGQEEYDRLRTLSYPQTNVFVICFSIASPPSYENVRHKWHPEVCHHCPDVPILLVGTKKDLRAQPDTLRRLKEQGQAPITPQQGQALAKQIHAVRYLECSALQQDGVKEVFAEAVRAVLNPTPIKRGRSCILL
UniProt Q96DM3: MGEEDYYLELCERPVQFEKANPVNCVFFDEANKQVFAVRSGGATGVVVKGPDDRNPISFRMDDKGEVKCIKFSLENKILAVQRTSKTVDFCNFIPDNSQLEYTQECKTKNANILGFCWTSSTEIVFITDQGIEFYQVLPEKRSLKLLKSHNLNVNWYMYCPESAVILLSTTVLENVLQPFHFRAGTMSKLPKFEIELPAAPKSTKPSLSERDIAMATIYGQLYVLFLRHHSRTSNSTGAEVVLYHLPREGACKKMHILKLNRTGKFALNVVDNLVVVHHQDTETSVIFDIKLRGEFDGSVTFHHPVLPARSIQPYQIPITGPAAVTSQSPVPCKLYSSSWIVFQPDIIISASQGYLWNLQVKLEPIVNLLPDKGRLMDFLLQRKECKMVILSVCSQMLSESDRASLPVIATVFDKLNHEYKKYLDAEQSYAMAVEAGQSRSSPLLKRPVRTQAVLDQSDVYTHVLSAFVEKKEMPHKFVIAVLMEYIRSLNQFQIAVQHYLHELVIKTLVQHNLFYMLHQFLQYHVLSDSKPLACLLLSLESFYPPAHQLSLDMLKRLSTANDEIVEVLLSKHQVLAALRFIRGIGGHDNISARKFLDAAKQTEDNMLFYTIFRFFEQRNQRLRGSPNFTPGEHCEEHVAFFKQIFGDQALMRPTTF
UniProt Q96EP0: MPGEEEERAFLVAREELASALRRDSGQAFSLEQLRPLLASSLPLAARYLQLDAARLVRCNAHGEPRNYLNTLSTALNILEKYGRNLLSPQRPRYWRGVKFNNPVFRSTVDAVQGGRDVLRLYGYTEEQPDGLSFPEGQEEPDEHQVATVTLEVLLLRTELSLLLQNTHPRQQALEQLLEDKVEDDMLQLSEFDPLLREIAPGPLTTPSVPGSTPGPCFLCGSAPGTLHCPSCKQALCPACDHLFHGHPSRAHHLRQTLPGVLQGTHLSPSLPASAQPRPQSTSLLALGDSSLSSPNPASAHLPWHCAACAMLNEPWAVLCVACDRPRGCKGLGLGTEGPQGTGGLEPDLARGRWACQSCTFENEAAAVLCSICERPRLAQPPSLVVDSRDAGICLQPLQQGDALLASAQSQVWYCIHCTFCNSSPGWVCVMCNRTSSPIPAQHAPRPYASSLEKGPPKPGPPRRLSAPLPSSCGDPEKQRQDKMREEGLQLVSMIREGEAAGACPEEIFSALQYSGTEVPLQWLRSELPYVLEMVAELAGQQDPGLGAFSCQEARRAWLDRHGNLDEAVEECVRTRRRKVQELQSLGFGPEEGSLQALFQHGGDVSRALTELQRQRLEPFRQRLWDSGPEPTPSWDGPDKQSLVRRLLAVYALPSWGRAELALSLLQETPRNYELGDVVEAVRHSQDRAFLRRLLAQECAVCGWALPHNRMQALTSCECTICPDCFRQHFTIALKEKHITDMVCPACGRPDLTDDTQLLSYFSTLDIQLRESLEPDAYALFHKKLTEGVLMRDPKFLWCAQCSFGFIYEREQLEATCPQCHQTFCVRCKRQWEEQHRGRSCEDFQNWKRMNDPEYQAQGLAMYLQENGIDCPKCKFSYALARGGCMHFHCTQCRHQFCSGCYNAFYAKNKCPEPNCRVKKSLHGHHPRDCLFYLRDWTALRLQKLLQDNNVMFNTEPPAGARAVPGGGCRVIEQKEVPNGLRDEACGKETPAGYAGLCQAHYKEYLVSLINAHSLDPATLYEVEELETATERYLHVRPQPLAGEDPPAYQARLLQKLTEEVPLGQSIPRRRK
UniProt Q96AT9: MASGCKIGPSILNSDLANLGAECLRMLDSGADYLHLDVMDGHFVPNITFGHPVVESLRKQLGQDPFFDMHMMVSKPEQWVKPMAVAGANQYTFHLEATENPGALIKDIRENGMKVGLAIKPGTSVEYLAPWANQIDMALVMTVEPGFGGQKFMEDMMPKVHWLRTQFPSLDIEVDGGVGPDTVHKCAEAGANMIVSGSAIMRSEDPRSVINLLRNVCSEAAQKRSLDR
UniProt Q06587: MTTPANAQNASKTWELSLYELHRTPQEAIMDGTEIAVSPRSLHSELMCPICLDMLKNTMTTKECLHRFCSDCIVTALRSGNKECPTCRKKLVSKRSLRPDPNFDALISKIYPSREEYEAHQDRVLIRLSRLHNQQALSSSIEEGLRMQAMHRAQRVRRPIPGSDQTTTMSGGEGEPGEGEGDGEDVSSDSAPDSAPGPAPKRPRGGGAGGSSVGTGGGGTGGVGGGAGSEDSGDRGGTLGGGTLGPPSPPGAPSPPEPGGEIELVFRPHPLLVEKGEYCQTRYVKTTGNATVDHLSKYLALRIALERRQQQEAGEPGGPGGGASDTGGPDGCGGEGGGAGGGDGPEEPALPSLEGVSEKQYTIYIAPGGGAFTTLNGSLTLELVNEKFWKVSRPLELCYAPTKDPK
UniProt Q9H6T3, whole entry, looked up: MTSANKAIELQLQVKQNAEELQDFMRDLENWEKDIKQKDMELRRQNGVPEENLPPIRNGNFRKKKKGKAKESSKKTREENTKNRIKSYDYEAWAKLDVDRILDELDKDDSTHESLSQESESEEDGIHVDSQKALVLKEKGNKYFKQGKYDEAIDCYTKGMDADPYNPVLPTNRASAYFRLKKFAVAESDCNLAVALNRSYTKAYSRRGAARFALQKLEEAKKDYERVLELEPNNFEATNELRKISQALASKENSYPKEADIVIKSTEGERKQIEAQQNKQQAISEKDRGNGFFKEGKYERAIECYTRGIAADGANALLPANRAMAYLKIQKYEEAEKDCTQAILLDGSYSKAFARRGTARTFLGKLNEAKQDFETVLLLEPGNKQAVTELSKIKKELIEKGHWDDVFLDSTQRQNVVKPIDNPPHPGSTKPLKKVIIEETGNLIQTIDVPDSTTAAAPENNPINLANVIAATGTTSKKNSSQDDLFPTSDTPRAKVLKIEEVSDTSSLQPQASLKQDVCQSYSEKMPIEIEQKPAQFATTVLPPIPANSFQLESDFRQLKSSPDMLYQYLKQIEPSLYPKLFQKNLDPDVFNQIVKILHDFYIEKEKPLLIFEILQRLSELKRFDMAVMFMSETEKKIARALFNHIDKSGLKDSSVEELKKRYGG
UniProt Q9BV68: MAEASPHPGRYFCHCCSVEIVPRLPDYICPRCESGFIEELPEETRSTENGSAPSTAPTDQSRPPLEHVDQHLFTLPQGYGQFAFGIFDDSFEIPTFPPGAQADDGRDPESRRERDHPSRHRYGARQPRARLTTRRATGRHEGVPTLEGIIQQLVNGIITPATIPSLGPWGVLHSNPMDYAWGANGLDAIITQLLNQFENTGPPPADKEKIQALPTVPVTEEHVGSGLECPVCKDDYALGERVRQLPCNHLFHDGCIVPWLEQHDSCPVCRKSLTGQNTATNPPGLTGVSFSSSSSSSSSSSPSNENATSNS
UniProt Q9NVN3: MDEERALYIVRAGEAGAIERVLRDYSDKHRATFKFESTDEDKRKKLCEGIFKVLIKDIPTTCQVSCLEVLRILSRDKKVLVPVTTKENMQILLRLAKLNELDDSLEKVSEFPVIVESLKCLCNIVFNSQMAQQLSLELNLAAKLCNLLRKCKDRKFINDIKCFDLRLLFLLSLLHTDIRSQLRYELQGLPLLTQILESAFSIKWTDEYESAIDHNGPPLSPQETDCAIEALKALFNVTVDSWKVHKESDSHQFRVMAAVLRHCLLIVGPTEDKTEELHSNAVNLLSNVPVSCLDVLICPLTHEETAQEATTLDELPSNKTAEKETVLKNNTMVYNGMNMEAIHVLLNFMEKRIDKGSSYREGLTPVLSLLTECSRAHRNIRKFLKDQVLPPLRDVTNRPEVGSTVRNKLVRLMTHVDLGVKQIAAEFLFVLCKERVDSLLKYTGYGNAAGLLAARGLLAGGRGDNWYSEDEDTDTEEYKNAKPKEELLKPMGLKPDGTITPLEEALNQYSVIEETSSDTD
UniProt Q96DB5: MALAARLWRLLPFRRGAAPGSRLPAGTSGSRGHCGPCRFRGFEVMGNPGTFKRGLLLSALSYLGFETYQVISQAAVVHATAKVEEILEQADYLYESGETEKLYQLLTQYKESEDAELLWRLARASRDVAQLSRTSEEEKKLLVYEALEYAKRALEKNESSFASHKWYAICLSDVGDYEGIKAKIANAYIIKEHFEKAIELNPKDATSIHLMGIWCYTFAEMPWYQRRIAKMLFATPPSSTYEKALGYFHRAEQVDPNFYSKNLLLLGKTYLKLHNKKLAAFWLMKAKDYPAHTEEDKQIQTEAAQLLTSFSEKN
UniProt Q5EBL4: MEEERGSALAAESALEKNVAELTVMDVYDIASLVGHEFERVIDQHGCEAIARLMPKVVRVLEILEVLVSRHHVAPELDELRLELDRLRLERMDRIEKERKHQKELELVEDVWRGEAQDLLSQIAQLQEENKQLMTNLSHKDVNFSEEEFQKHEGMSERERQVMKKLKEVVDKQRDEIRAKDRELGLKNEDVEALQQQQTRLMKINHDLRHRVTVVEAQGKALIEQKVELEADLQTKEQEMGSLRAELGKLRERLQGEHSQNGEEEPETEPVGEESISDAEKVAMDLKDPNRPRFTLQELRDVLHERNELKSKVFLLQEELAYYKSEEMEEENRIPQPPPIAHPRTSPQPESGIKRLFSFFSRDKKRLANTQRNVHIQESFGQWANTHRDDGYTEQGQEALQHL

[2] = compound: C/C(=N\NC(=O)C1=CC(=CC=C1)S(=O)(=O)N2CCOCC2)/C3=C(C=CC(=C3)Cl)O
How it was run: as §1

[3] = compound: C1=CC(=CC=C1C2=NC3=C(N2)C=C(C=C3)C(=O)N)OC4=CC=C(C=C4)Cl
How it was run: as §1

[4] = compound: C1=CC2=C(C=CC(=C2)/C=C\3/C(=O)NC(=NCC4=CC=CS4)S3)N=C1
How it was run: as §1

[5] = compound: C1=CC2=NC=CN=C2C=C1/C=C/3\C(=O)NC(=O)S3
How it was run: as §1

[6] = compound: C1=CC=C(C=C1)C2=NC(=C(N2)C3=CC=NC=C3)C4=CC(=C(C=C4)Cl)O
How it was run: as §1

[7] = compound: C1=CC=C2C(=C1)C3=NNC4=CC=CC(=C43)C2=O
How it was run: as §1

[8] = compound: C1CCN(C1)C(=O)NC2=CC=CC(=C2)NC3=NC=C(C(=N3)NCCC4=CN=CN4)Br
How it was run: as §1

[9] = compound: C1CN(CCC1(CC2=CC=C(C=C2)Cl)N)C3=NC=NC4=C3C=CN4
How it was run: as §1

[10] = compound: C1COCCN1CCN2C3=CC=CC=C3N=C2NC(=O)C4=CC(=CC=C4)[N+](=O)[O-] [IRAK-1-4 Inhibitor I]
How it was run: as §1

[11] = compound: C=CC(=O)N1CCC[C@@H](n2nc(-c3ccc(Oc4ccccc4)cc3)c3c(N)ncnc32)C1 [ibrutinib]
How it was run: as §1

[12] = compound: CC(=O)c1cnc2ccc(-c3cc(Cl)c(O)c(Cl)c3)nc2c1N[C@H]1CC[C@H](CN(C)C)CC1
How it was run: as §1

[13] = compound: CC(C)(C)Cn1c(N)nc2ccc(-c3[nH]c(C(C)(C)C)nc3-c3ccc(F)cc3)nc21 [ralimetinib]
How it was run: as §1

[14] = compound: CC(C)(O)CC(=O)NCCn1ccc2ncnc(Nc3ccc(Oc4cccc(C(F)(F)F)c4)c(Cl)c3)c21
How it was run: as §1

[15] = compound: CC(C)C1=C2N=C(C=C(N2N=C1)NCC3=CC=CC=C3)NCCCCCCN
How it was run: as §1

[16] = compound: CC1=C(C(CC(=O)N1)C2=CC=C(C=C2)C(F)(F)F)C(=O)NC3=C(C=C4C(=C3)C=NN4)F
How it was run: as §1

[17] = compound: CC1=C(C2=C(C=C1)C(=O)C3=CC=CC=C3N2CCCN)C
How it was run: as §1

[18] = compound: CC1=C(C=C(C=C1)NC(=O)C2=CC(=CC=C2)C(C)(C)C#N)NC3=CC4=C(C=C3)N=CN(C4=O)C
How it was run: as §1

[19] = compound: CC1=C(C=C(C=C1)NC(=O)C2=CC(=CC=C2)N(C)C)NC(=O)C3=CC=C(C=C3)O
How it was run: as §1

[20] = compound: CC1=CC=C(C=C1)SC2=C3C=C(SC3=CN=C2)C(=O)N
How it was run: as §1

Measured: log2 fold change

RPL13A (UniProt P40429)
inactive: [1] -0.032 | [2] -0.089 | [3] -0.064 | [4] -0.022 | [5] 0.009 | [6] 0.03 | [7] 0.041 | [8] 0.029 | [9] -0.007 | [10] 0.001 | [11] -0.036 | [12] -0.01 | [13] -0.013 | [14] -0.002 | [15] 0.006 | [16] -0.036 | [17] -0.055 | [18] -0.03 | [19] 0 | [20] 0.031

RNPS1 (UniProt Q15287)
inactive: [1] -0.008 | [2] -0.105 | [3] 0.025 | [4] -0.151 | [5] -0.005 | [6] -0.006 | [7] 0.027 | [8] -0.016 | [9] -0.073 | [10] 0.023 | [11] 0.04 | [12] 0.042 | [13] 0.007 | [14] 0.006 | [15] 0.005 | [16] 0.138 | [17] 0.003 | [18] -0.057 | [19] -0.032 | [20] -0.032

RNF114 (UniProt Q9Y508)
inactive: [1] -0.009 | [2] -0.011 | [3] 0.017 | [4] 0.015 | [5] 0.007 | [6] -0.006 | [7] 0.006 | [8] 0.005 | [9] 0.013 | [10] -0.012 | [11] 0.012 | [12] -0.01 | [13] 0 | [14] 0.001 | [15] -0.042 | [16] -0.024 | [17] 0.019 | [18] 0.038 | [19] -0.045 | [20] -0.019

RPL35A (UniProt P18077)
inactive: [1] 0.005 | [2] -0.089 | [3] -0.025 | [4] 0.004 | [5] -0.041 | [6] 0 | [7] -0.014 | [8] 0.019 | [9] -0.042 | [10] 0.021 | [11] -0.038 | [12] -0.023 | [13] -0.027 | [14] -0.026 | [15] 0.021 | [16] -0.053 | [17] -0.067 | [18] -0.009 | [19] 0.032 | [20] 0.045

RHOG (UniProt P84095)
inactive: [1] -0.007 | [2] -0.004 | [3] -0.002 | [4] -0.037 | [5] -0.011 | [6] -0.001 | [7] -0.014 | [8] -0.027 | [9] 0.018 | [10] 0.008 | [11] 0.037 | [12] 0.011 | [13] -0.054 | [14] 0.03 | [15] -0.015 | [16] -0.019 | [17] -0.025 | [18] 0.025 | [19] -0.024 | [20] 0

RMC1 (UniProt Q96DM3)
inactive: [1] 0.015 | [2] -0.056 | [3] 0.017 | [4] -0.06 | [5] 0.004 | [6] -0.008 | [7] -0.054 | [8] -0.001 | [9] 0.035 | [10] 0.006 | [11] -0.004 | [12] 0.018 | [13] 0.03 | [14] -0.024 | [15] -0.001 | [16] -0.017 | [17] -0.018 | [18] 0.009 | [19] 0.005 | [20] 0.027

Taken from the results shown (2 entries):
RNF114 (UniProt Q9Y508)
inactive: [1] -0.009 | [2] -0.011 | [3] 0.017 | [4] 0.015 | [5] 0.007 | [6] -0.006 | [7] 0.006 | [8] 0.005 | [9] 0.013 | [10] -0.012 | [11] 0.012 | [12] -0.01 | [13] 0 | [14] 0.001 | [15] -0.042 | [16] -0.024 | [17] 0.019 | [18] 0.038 | [19] -0.045 | [20] -0.019

RPL35A (UniProt P18077)
inactive: [1] 0.005 | [2] -0.089 | [3] -0.025 | [4] 0.004 | [5] -0.041 | [6] 0 | [7] -0.014 | [8] 0.019 | [9] -0.042 | [10] 0.021 | [11] -0.038 | [12] -0.023 | [13] -0.027 | [14] -0.026 | [15] 0.021 | [16] -0.053 | [17] -0.067 | [18] -0.009 | [19] 0.032 | [20] 0.045

Following part:

RNF31 (UniProt Q96EP0)
inactive: [1] 0.013 | [2] 0.004 | [3] 0.038 | [4] 0.002 | [5] -0.068 | [6] -0.013 | [7] 0.034 | [8] -0.033 | [9] 0.009 | [10] -0.064 | [11] -0.001 | [12] -0.067 | [13] 0.028 | [14] 0.001 | [15] -0.013 | [16] -0.028 | [17] -0.036 | [18] -0.036 | [19] 0.04 | [20] 0.006

RPE (UniProt Q96AT9)
inactive: [1] 0.005 | [2] -0.053 | [3] 0.065 | [4] -0.008 | [5] -0.115 | [6] -0.006 | [7] 0.037 | [8] -0.108 | [9] 0.041 | [10] 0.05 | [11] -0.186 | [12] -0.027 | [13] 0.007 | [14] -0.042 | [15] -0.015 | [16] -0.015 | [17] -0.019 | [18] 0.022 | [19] -0.004 | [20] 0.084

RPL17 isoform 3 (UniProt P18621)
inactive: [1] 0.01 | [2] 0.016 | [3] -0.006 | [4] 0.044 | [5] -0.01 | [6] 0.017 | [7] 0.054 | [8] 0.01 | [9] -0.004 | [10] 0 | [11] 0.017 | [12] 0.015 | [13] -0.014 | [14] -0.013 | [15] -0.008 | [16] -0.028 | [17] -0.022 | [18] -0.007 | [19] 0.003 | [20] 0.012

RING1 (UniProt Q06587)
inactive: [1] -0.03 | [2] -0.057 | [3] -0.011 | [4] 0.065 | [5] 0.058 | [6] -0.049 | [7] -0.047 | [8] -0.005 | [9] 0.001 | [10] 0.052 | [11] 0 | [12] -0.018 | [13] 0.015 | [14] 0.003 | [15] 0.022 | [16] 0.012 | [17] -0.041 | [18] 0 | [19] -0.012 | [20] 0.004

RPAP3 (UniProt Q9H6T3)
inactive: [1] 0.007 | [2] 0.007 | [3] -0.005 | [4] 0.004 | [5] -0.002 | [6] -0.003 | [7] -0.007 | [8] -0.011 | [9] 0.001 | [10] -0.004 | [11] 0.011 | [12] 0.008 | [13] -0.007 | [14] 0.016 | [15] -0.003 | [16] -0.012 | [17] 0.007 | [18] 0.003 | [19] 0.015 | [20] -0.006

RNF126 (UniProt Q9BV68)
inactive: [1] -0.036 | [2] 0.024 | [3] -0.204 | [4] 0.011 | [5] 0.047 | [6] 0.079 | [7] 0.026 | [8] -0.04 | [9] 0.002 | [10] -0.048 | [11] -0.033 | [12] 0.039 | [13] -0.003 | [14] -0.089 | [15] 0.154 | [16] -0.029 | [17] -0.023 | [18] 0.149 | [19] -0.05 | [20] -0.076

RIC8B isoform 1 (UniProt Q9NVN3)
inactive: [1] 0.004 | [2] 0.01 | [3] 0.065 | [4] 0.039 | [5] 0.049 | [6] 0.036 | [7] 0.023 | [8] -0.096 | [9] 0.065 | [10] -0.041 | [11] -0.018 | [12] 0.005 | [13] 0.037 | [14] -0.099 | [15] -0.029 | [16] 0.04 | [17] -0.154 | [18] -0.012 | [19] 0.026 | [20] 0.016

RPL27 (UniProt P61353)
inactive: [1] 0.002 | [2] -0.02 | [3] -0.04 | [4] -0.033 | [5] 0.011 | [6] 0.011 | [7] 0.03 | [8] 0.052 | [9] -0.014 | [10] -0.014 | [11] 0.037 | [12] -0.014 | [13] -0.025 | [14] -0.018 | [15] -0.01 | [16] -0.067 | [17] -0.051 | [18] 0 | [19] -0.01 | [20] 0.014

RMDN1 (UniProt Q96DB5)
inactive: [1] -0.004 | [2] 0.041 | [3] -0.004 | [4] -0.029 | [5] 0.02 | [6] 0.031 | [7] -0.031 | [8] 0.026 | [9] 0.099 | [10] -0.002 | [11] 0.018 | [12] 0.001 | [13] 0.013 | [14] -0.021 | [15] -0.01 | [16] -0.025 | [17] 0.034 | [18] -0.002 | [19] -0.006 | [20] 0.001

RILPL1 (UniProt Q5EBL4)
inactive: [1] 0.002 | [2] 0.071 | [3] -0.001 | [4] -0.017 | [5] 0.018 | [6] -0.017 | [7] -0.01 | [8] 0.022 | [9] 0.008 | [10] 0.009 | [11] -0.018 | [12] -0.006 | [13] -0.001 | [14] -0.018 | [15] -0.033 | [16] 0.058 | [17] -0.032 | [18] 0.006 | [19] -0.005 | [20] -0.012

From the supplement of paper PMC10849652
